The values below come from article PMC9938216.

The chains behind the UniProt entries cited, without tags or fusion partners. Residues count along the entry.
UniProt P97952, residues 19-218: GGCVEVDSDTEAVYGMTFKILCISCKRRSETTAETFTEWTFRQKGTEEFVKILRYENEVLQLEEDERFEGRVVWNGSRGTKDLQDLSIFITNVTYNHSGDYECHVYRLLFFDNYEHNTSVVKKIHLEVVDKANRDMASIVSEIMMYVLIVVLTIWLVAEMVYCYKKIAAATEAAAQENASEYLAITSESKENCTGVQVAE
UniProt P46096: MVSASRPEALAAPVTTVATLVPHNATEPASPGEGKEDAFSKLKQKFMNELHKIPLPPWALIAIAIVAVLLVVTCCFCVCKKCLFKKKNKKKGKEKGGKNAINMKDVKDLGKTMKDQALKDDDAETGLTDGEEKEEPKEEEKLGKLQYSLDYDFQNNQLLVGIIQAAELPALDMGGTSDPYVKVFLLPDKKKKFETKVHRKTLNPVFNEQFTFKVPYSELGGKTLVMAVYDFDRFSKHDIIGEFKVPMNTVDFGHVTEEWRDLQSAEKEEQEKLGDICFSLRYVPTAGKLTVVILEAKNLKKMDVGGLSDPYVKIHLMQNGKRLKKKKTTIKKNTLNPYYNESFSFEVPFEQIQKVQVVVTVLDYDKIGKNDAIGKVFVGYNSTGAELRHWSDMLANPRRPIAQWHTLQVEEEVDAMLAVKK
UniProt Q8R3Z5: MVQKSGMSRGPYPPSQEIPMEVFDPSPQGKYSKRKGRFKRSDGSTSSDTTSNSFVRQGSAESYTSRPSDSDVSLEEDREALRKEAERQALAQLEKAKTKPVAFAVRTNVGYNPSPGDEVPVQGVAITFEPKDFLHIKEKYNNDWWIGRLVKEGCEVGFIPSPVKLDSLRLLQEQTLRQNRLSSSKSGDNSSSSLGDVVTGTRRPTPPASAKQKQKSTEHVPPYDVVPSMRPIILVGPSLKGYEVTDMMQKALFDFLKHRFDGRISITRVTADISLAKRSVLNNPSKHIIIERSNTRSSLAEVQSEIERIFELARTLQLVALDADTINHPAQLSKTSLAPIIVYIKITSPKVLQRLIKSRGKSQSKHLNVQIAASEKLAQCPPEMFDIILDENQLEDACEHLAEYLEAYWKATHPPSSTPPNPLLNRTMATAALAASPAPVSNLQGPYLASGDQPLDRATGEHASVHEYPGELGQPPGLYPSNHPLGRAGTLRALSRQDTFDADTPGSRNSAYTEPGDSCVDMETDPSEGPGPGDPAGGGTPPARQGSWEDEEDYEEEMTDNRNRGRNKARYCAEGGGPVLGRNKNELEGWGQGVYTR
UniProt Q8CC27: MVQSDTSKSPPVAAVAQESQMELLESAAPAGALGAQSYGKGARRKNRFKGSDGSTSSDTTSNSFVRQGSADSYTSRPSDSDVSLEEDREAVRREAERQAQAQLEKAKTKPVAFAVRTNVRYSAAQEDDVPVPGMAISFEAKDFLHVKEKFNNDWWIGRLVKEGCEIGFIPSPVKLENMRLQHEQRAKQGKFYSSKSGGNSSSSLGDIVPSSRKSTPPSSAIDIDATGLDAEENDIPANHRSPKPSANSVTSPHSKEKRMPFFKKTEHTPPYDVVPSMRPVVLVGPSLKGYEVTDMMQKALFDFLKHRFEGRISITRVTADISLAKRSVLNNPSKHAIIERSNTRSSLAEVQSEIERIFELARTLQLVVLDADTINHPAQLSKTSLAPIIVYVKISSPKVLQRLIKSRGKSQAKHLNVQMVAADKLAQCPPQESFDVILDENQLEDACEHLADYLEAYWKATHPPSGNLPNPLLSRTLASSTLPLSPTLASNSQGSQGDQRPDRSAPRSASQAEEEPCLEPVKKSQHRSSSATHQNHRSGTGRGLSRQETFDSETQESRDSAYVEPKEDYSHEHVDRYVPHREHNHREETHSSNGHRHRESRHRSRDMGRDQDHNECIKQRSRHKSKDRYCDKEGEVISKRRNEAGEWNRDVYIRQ
UniProt Q56A07, residues 30-215: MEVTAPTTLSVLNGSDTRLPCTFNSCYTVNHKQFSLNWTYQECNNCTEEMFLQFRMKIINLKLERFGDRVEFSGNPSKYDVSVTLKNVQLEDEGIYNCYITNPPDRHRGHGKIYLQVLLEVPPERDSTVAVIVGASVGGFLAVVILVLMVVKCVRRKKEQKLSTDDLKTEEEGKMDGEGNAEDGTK

B1: TARP-ϒ8 (protein, UniProt Q8VHW2 1-423)
chain: MESLKRWNEERGLWCEKGVQVLLTTIGAFSAFGLMTIAISTDYWLYTRALICNTTNLTAGDDGPPHRGGSGSSEKKDPGGLTHSGLWRICCLEGLKRGVCVKINHFPEDTDYDHDSAEYLLRVVRASSIFPILSAILLLLGGVCVAASRVYKSKRNIILGAGILFVAAGLSNIIGVIVYISANAGEPGPKRDEEKKNHYSYGWSFYFGGLSFILAEVIGVLAVNIYIERSREAHCQSRSDLLKAGGGAGGSGGSGPSAILRLPSYRFRYRRRSRSSSRGSSEASPSRDASPGGPGGPGFASTDISMYTLSRDPSKGSVAAGLASAGGGGSGAGVGAYGGAAGAAGGGGAGSERDRGSSAGFLTLHNAFPKEAASGVTVTVTGPPAAPAPAPAPPAPAAPAPGTLSKEAAASNTNTLNRKTTPV

Results are given in words; binding and its absence hold for the method and conditions named. In cells and extracts the contact can be indirect. Here binding means that the protein was enriched with, or labelled near, the bait; the list need not be complete.

The target of this experiment is T1, PRRT2 (mouse (endogenous in mouse neocortex)) (UniProt E9PUL5).
T1 sequence: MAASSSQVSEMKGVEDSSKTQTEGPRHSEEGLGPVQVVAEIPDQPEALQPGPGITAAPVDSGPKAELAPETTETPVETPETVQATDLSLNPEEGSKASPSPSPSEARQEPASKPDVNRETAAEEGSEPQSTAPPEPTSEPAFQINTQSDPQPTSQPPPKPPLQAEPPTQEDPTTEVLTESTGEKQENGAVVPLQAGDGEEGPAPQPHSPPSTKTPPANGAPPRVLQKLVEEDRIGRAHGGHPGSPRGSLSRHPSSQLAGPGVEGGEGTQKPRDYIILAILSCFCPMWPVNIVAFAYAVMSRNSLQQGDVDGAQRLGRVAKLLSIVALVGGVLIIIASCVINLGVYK
Description: affinity purification with mass spectrometry; PRRT2 rabbit antibody crosslinked to Protein A/G beads, against non-specific rabbit IgG; washed (1 M KI) membrane fraction of mouse neocortex solubilised in 1% CHAPS, 100 mM NaCl, 20 mM HEPES pH 7.4, 5 mM EDTA; overnight at 4 °C; n = 3.
Take SCN1B (from UniProt P97952 19-218): the binding result was “binds”.
In the case of SYT1 (from UniProt P46096 1-421) it was “binds”; in that of CACNB1 (from UniProt Q8R3Z5 1-597), “binds”.
With CACNB2 (from UniProt Q8CC27 1-655) the entry was “binds”; with SCN2B (from UniProt Q56A07 30-215), “binds”; with B1, “binds”.
